PubChem BioAssay AID1259327, Drosophila RNAi Screening Center, 2017
The deposit covers about 3,100 reagents; below is a random part of them. Over the whole deposit, 378 (12%) were called active. 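Hits include both directions; z-score sign shows ATP rise or fall; raw luminescence values are not plate-normalised.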 The numbers tell different reagents against one gene apart. Not given: the amount of reagent.

Screen: 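Baseline ATP after transmembrane-protein gene knock-down with water vehicle only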
Cells: Drosophila S2R+ cells
Reagents: long dsRNA against Drosophila genes
Time to read-out: 5 days (water added on day 4, read one day later)
Challenge: water added as vehicle, no metal, one day before read-out
Measured: 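Luciferase ATP signal per well, normalised to plate mean, duplicate average converted to z-score across plates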
Scale: ATP z-score: higher = more total ATP than typical wells; ATP luminescence: higher = more total ATP
Call rule: 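a hit is any knock-down whose absolute ATP z-score is greater than 1.5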
Calls: active = hit: ATP up or down; inactive = no clear ATP change

What did the screen give for Npc1b #1?
ATP z-score, duplicate mean: 0.000196; ATP luminescence, replicate 1 (RLU): 6.86e5; ATP luminescence, replicate 2 (RLU): 8.03e5; call: inactive

For Npc1b #2, how do the results read?
ATP z-score, duplicate mean: -0.918; ATP luminescence, replicate 1 (RLU): 3.87e5; ATP luminescence, replicate 2 (RLU): 4.19e5; call: inactive

How did the screen score CG42260?
ATP z-score, duplicate mean: -0.472; ATP luminescence, replicate 1 (RLU): 6.55e5; ATP luminescence, replicate 2 (RLU): 6.96e5; call: inactive

What did the screen give for Rh3?
ATP z-score, duplicate mean: 0.0897; ATP luminescence, replicate 1 (RLU): 7.19e5; ATP luminescence, replicate 2 (RLU): 7.10e5; call: inactive

What is on record for CG33639 #1?
ATP z-score, duplicate mean: 1.33; ATP luminescence, replicate 1 (RLU): 7.53e5; ATP luminescence, replicate 2 (RLU): 6.31e5; call: inactive

What is on record for CG33639 #2?
ATP z-score, duplicate mean: 0.373; ATP luminescence, replicate 1 (RLU): 9.43e5; ATP luminescence, replicate 2 (RLU): 8.50e5; call: inactive

How did the screen score Or24a?
ATP z-score, duplicate mean: 0.685; ATP luminescence, replicate 1 (RLU): 7.74e5; ATP luminescence, replicate 2 (RLU): 8.23e5; call: inactive

For ATP8B, how do the results read?
ATP z-score, duplicate mean: -0.486; ATP luminescence, replicate 1 (RLU): 2.52e5; ATP luminescence, replicate 2 (RLU): 7.74e5; call: inactive

A portion from the list above:
Npc1b #1 — ATP z-score, duplicate mean: 0.000196; ATP luminescence, replicate 1 (RLU): 6.86e5; ATP luminescence, replicate 2 (RLU): 8.03e5; call: inactive
Npc1b #2 — ATP z-score, duplicate mean: -0.918; ATP luminescence, replicate 1 (RLU): 3.87e5; ATP luminescence, replicate 2 (RLU): 4.19e5; call: inactive

Additional entries:
For CG14605 #1, what does the deposit list?
ATP z-score, duplicate mean: 0.167; ATP luminescence, replicate 1 (RLU): 9.48e5; ATP luminescence, replicate 2 (RLU): 8.88e5; call: inactive

With CG14605 #2, what does the deposit list?
ATP z-score, duplicate mean: -0.0813; ATP luminescence, replicate 1 (RLU): 8.60e5; ATP luminescence, replicate 2 (RLU): 7.70e5; call: inactive

How did the screen score Shaw #1?
ATP z-score, duplicate mean: -0.912; ATP luminescence, replicate 1 (RLU): 6.24e5; ATP luminescence, replicate 2 (RLU): 6.35e5; call: inactive

What is on record for Shaw #2?
ATP z-score, duplicate mean: -0.535; ATP luminescence, replicate 1 (RLU): 5.29e5; ATP luminescence, replicate 2 (RLU): 8.49e5; call: inactive

With Shaw #3, what was measured?
ATP z-score, duplicate mean: -2.12; ATP luminescence, replicate 1 (RLU): 3.92e5; ATP luminescence, replicate 2 (RLU): 4.09e5; call: active
